Laboratory results as given in publication PMC11102450.
Results are given in words; binding and its absence hold for the method and conditions named. Binding seen in cells or lysates may run through a third protein. Some entries that bind do so weakly or less than the wild type.

Molecular target: p53 (human (endogenous in A549 and HCC827)) (UniProt P04637)
Experiment: co-IP; endogenous proteins in A549 and HCC827 cell lysates (RIPA buffer with protease inhibitor cocktail); incubated with anti-MYBBP1A or anti-p53 antibody or control IgG at 4 °C overnight, Protein A/G PLUS-Agarose beads 4 h, washed 3 times with RIPA buffer, western blot; GAS5-knockdown cells compared with control cells

binding: binds
B1: MYBBP1A (protein, UniProt Q9BQG0 1-1328)
chain: MESRDPAQPMSPGEATQSGARPADRYGLLKHSREFLDFFWDIAKPEQETRLAATEKLLEYLRGRPKGSEMKYALKRLITGLGVGRETARPCYSLALAQLLQSFEDLPLCSILQQIQEKYDLHQVKKAMLRPALFANLFGVLALFQSGRLVKDQEALMKSVKLLQALAQYQNHLQEQPRKALVDILSEVSKATLQEILPEVLKADLNIILSSPEQLELFLLAQQKVPSKLKKLVGSVNLFSDENVPRLVNVLKMAASSVKKDRKLPAIALDLLRLALKEDKFPRFWKEVVEQGLLKMQFWPASYLCFRLLGAALPLLTKEQLHLVMQGDVIRHYGEHVCTAKLPKQFKFAPEMDDYVGTFLEGCQDDPERQLAVLVAFSSVTNQGLPVTPTFWRVVRFLSPPALQGYVAWLRAMFLQPDLDSLVDFSTNNQKKAQDSSLHMPERAVFRLRKWIIFRLVSIVDSLHLEMEEALTEQVARFCLFHSFFVTKKPTSQIPETKHPFSFPLENQAREAVSSAFFSLLQTLSTQFKQAPGQTQGGQPWTYHLVQFADLLLNHSHNVTTVTPFTAQQRQAWDRMLQTLKELEAHSAEARAAAFQHLLLLVGIHLLKSPAESCDLLGDIQTCIRKSLGEKPRRSRTKTIDPQEPPWVEVLVEILLALLAQPSHLMRQVARSVFGHICSHLTPRALQLILDVLNPETSEDENDRVVVTDDSDERRLKGAEDKSEEGEDNRSSESEEESEGEESEEEERDGDVDQGFREQLMTVLQAGKALGGEDSENEEELGDEAMMALDQSLASLFAEQKLRIQARRDEKNKLQKEKALRRDFQIRVLDLVEVLVTKQPENALVLELLEPLLSIIRRSLRSSSSKQEQDLLHKTARIFTHHLCRARRYCHDLGERAGALHAQVERLVQQAGRQPDSPTALYHFNASLYLLRVLKGNTAEGCVHETQEKQKAGTDPSHMPTGPQAASCLDLNLVTRVYSTALSSFLTKRNSPLTVPMFLSLFSRHPVLCQSLLPILVQHITGPVRPRHQACLLLQKTLSMREVRSCFEDPEWKQLMGQVLAKVTENLRVLGEAQTKAQHQQALSSLELLNVLFRTCKHEKLTLDLTVLLGVLQGQQQSLQQGAHSTGSSRLHDLYWQAMKTLGVQRPKLEKKDAKEIPSATQSPISKKRKKKGFLPETKKRKKRKSEDGTPAEDGTPAATGGSQPPSMGRKKRNRTKAKVPAQANGTPTTKSPAPGAPTRSPSTPAKSPKLQKKNQKPSQVNGAPGSPTEPAGQKQHQKALPKKGVLGKSPLSALARKKARLSLVIRSPSLLQSGAKKKAQVRKAGKP
